Experimental data reported in patent US20180328927A1 (HUNAN SKYWORLD BIOTECHNOLOGIES CO., priority 2015, published 2018).
Several values for one entry are separate records, joined by “and”; a condition that tells them apart may be missing. Identical values can stand only once.

Tested on: HRP-anti-SAM 84-3
Assay: SAMe standard curve, competitive ELISA on BSA-SAMe coated plate
Settings: duplicates

C[S+](CC[C@H](N)C(=O)[O-])C[C@H]1O[C@@H](n2cnc3c(N)ncnc32)[C@H](O)[C@@H]1O (stereo partly shown) [SAMe, S-adenosylmethionine]
OD450 (SAMe) (SAMe 0.3125 uM): 1.0548 and 0.9196
OD450 (SAMe) (SAMe 0.625 uM): 0.9742 and 0.9250
OD450 (SAMe) (SAMe 1.25 uM): 0.7431 and 0.7396
OD450 (SAMe) (SAMe 2.5 uM): 0.4976 and 0.4788
OD450 (SAMe) (SAMe 5 uM): 0.2461 and 0.2307
OD450 (SAMe) (SAMe 10 uM): 0.1389 and 0.1343
OD450 (SAMe) (SAMe 20 uM): 0.1407 and 0.1447
